Source: publication PMC9077873
No constants are given. Whether binding was seen depends on the method and setting. Binding seen in cells or lysates may run through a third protein. Binding can be weak; no strength is given.

By UniProt entry, the sequences of proteins in these tests, tags left out. Where a name states a change or a piece, a line headed by the entry shows the natural chain unless it says otherwise.
UniProt Q8K4Z3: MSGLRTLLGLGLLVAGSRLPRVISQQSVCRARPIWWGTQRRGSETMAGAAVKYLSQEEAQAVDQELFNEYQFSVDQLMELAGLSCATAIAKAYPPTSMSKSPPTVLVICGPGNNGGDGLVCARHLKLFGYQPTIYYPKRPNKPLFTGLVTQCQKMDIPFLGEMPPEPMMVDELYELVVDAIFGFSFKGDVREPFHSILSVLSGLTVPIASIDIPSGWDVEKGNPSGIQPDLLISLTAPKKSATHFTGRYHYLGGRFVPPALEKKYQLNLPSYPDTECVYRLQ

Biological target: Apolipoprotein A-I binding protein, FLAG-tagged (AIBP-FLAG) (UniProt Q8K4Z3)
Assay: co-IP; 293 T cells transfected with AIBP-FLAG/AIBP(ΔMLS)-Flag; lysis in 150 mM NaCl, 25 mM HEPES, 0.2% NP40, 10% glycerol, 1 mM DTT; anti-FLAG or anti-HA antibody 6 h at 4 °C, Protein G Sepharose overnight; Western blot

binding: binds
B1: Mitochondrial inner membrane transporter TIM23 (protein, UniProt O14925 1-209)
chain: MEGGGGSGNKTTGGLAGFFGAGGAGYSHADLAGVPLTGMNPLSPYLNVDPRYLVQDTDEFILPTGANKTRGRFELAFFTIGGCCMTGAAFGAMNGLRLGLKETQNMAWSKPRNVQILNMVTRQGALWANTLGSLALLYSAFGVIIEKTRGAEDDLNTVAAGTMTGMLYKCTGGLRGIARGGLTGLTLTSLYALYNNWEHMKGSLLQQSL
